According to PubChem BioAssay AID288 (DTP/NCI, 2004):
The list is a part of this screen's results and no random one: it is rich in T/C values a quarter to a half above the control, in often repeated tests (any T/C) and in doses without a T/C. Other doses and runs of a compound stand elsewhere. T/C gives the treated animals as a percentage of the vehicle group. Schedule codes are those of the source, read here as Q, the interval in days (D) or hours (H), X, the number of doses. Some doses have a count of surviving animals in place of a T/C: the source holds a T/C of zero for them, seemingly a mark for toxic or unscored doses. Some doses without a T/C left all or most animals alive at the check, yet need not have been tolerated: the source hardly ever lists a survival T/C far under the control, and the zero likely stands for such cases as well. Counts of survivors are from the toxicity check (mostly the fifth day) where no day follows; animals may have died later. Some entries were tested several times; the results are listed from low to high. Where survival is the endpoint, the PubChem record calls one and a half times the control and up active, and a quarter to a half above the control has no call in these data; cut-offs in other NCI protocols can differ. Some T/C values carry the count of animals alive at the toxicity check (mostly the fifth day); without a count, all were alive then.

System: BDF1 mice, M5076 sarcoma s.c., survival/tumor T/C
Experiment: NCI In Vivo Anticancer Drug Screen. Data for tumor model Sarcoma M5076 (subcutaneous) in B6D2F1 (BDF1) mice
Procedure: The antitumor activity of compounds was measured in mice bearing transplantable tumors. Survival or tumor size were measured and the results are expressed as the measurement made in the treated group (T) divided by the measurement made in the vehicle treated control group (C). The tumor model used in this assay is Sarcoma M5076 (subcutaneous) in B6D2F1 (BDF1) mice

Question: How did the T/C (T/C endpoint: median survival time, dose: 108.0 mg/kg/injection, schedule: Q01DX005 (ip), vehicle: saline, evaluated on day 16, higher T/C = longer survival) turn out when `O=[N+]([O-])c1ccc(CSc2ncnc3c2ncn3C2OC(COP(=O)(O)O)C(O)C2O)cc1` (stereo unspecified) was run?
Answer: 139 % of control

Question: And the T/C (T/C endpoint: median survival time, dose: 108.0 mg/kg/injection, schedule: Q01DX005 (ip), vehicle: saline, evaluated on day 17, higher T/C = longer survival)?
Answer: 126 % of control

Question: What about the T/C (T/C endpoint: median survival time, dose: 108.0 mg/kg/injection, schedule: Q01DX005 (ip), vehicle: saline, evaluated on day 47, higher T/C = longer survival) of the same compound?
Answer: 132 % of control

Question: What about the T/C (T/C endpoint: median survival time, dose: 108.0 mg/kg/injection, schedule: Q01DX005 (ip), vehicle: saline, evaluated on day 49, higher T/C = longer survival) of the same compound?
Answer: 119 % of control

Question: What about the T/C (T/C endpoint: median survival time, dose: 180.0 mg/kg/injection, schedule: Q01DX005 (ip), vehicle: saline, evaluated on day 16, higher T/C = longer survival) of the same compound?
Answer: 123 % of control

Question: And the T/C (T/C endpoint: median survival time, dose: 180.0 mg/kg/injection, schedule: Q01DX005 (ip), vehicle: saline, evaluated on day 17, higher T/C = longer survival)?
Answer: 149 % of control

Question: And the T/C (T/C endpoint: median survival time, dose: 180.0 mg/kg/injection, schedule: Q01DX005 (ip), vehicle: saline, evaluated on day 47, higher T/C = longer survival)?
Answer: 123 % of control [7 of 8 alive on day 47]

Question: And the T/C (T/C endpoint: median survival time, dose: 180.0 mg/kg/injection, schedule: Q01DX005 (ip), vehicle: saline, evaluated on day 49, higher T/C = longer survival)?
Answer: 146 % of control

Question: And the T/C (T/C endpoint: median survival time, dose: 300.0 mg/kg/injection, schedule: Q01DX005 (ip), vehicle: saline, evaluated on day 16, higher T/C = longer survival)?
Answer: 152 % of control [6 of 7 alive]

Question: What about the T/C (T/C endpoint: median survival time, dose: 300.0 mg/kg/injection, schedule: Q01DX005 (ip), vehicle: saline, evaluated on day 17, higher T/C = longer survival) of the same compound?
Answer: 164 % of control

Question: What about the T/C (T/C endpoint: median survival time, dose: 300.0 mg/kg/injection, schedule: Q01DX005 (ip), vehicle: saline, evaluated on day 49, higher T/C = longer survival) of the same compound?
Answer: 162 % of control

Question: And the survivor count (T/C endpoint: median survival time, dose: 300.0 mg/kg/injection, schedule: Q01DX005 (ip), vehicle: saline, higher T/C = longer survival)?
Answer: 4 of 8 on day 47

Question: And the survivor count (T/C endpoint: median survival time, dose: 500.0 mg/kg/injection, schedule: Q01DX005 (ip), vehicle: saline, higher T/C = longer survival)?
Answer: 0 of 8 on day 47 and 1 of 8 on day 49

Question: With `O=C1c2ccccc2C(=O)c2c(NCCNCCO)ccc(O)c21` as the compound, how does the survivor count (T/C endpoint: median survival time, dose: 225.0 mg/kg/injection, schedule: Q04DX003 (ip), vehicle: saline with Tween-80, higher T/C = longer survival) read?
Answer: 5 of 10 on day 49

Question: How did the T/C (T/C endpoint: median survival time, dose: 12.8 mg/kg/injection, schedule: Q01DX010 (ip), vehicle: saline, higher T/C = longer survival) turn out when `CC(C)CC(NC(=O)C(N)C(C)C)C(=O)NC(CCCCN)C(=O)NC(C(=O)O)C1CC(Cl)=NO1` (stereo unspecified) was run?
Answer: 125 and 148 % of control

Question: And the T/C (T/C endpoint: median survival time, dose: 25.6 mg/kg/injection, schedule: Q01DX010 (ip), vehicle: saline, higher T/C = longer survival)?
Answer: 144 % of control

Question: And the survivor count (T/C endpoint: median survival time, dose: 51.2 mg/kg/injection, schedule: Q01DX010 (ip), vehicle: saline, higher T/C = longer survival)?
Answer: 10 of 10

Question: What does the source list for `O=c1[nH]c(=O)n(C2CC(O)C(CO)O2)cc1C(F)(F)F` (stereo unspecified)?
Answer: survivor count (T/C endpoint: median tumor weight (est.), dose: 150.0 mg/kg/injection, schedule: Q02DX011 (ip), vehicle: saline, higher T/C = larger tumour): 4 of 10 on day 22; survivor count (T/C endpoint: median tumor weight (est.), dose: 300.0 mg/kg/injection, schedule: Q02DX011 (ip), vehicle: saline, higher T/C = larger tumour): 3 of 10 on day 22

Question: For `C1CN1c1nc(N2CC2)nc(N2CC2)n1`, which T/C (T/C endpoint: median survival time, dose: 0.5 mg/kg/injection, schedule: Q02DX011 (ip), vehicle: saline, higher T/C = longer survival) is on record?
Answer: 140 % of control

Question: And the survivor count (T/C endpoint: median survival time, dose: 2.0 mg/kg/injection, schedule: Q02DX011 (ip), vehicle: saline, higher T/C = longer survival)?
Answer: 0 of 10 on day 16

Question: `NC(=O)c1csc(C2OC(CO)C(O)C2O)n1` (stereo unspecified) was tested. Which T/C (T/C endpoint: median tumor weight (est.), dose: 37.5 mg/kg/injection, schedule: Q01DX009 (ip), vehicle: saline, evaluated on day 17, higher T/C = larger tumour) did it give?
Answer: 133 % of control

Question: What about the survivor count (T/C endpoint: median tumor weight (est.), dose: 600.0 mg/kg/injection, schedule: Q01DX009 (ip), vehicle: saline, higher T/C = larger tumour) of the same compound?
Answer: 6 of 10 on day 17

Question: For `Nc1ccc(N2N=C(N3CCCC3)CC2=O)cc1`, which T/C (T/C endpoint: median tumor weight (est.), dose: 100.0 mg/kg/injection, schedule: Q01DX009 (ip), vehicle: saline with Tween-80, evaluated on day 20, higher T/C = larger tumour) is on record?
Answer: 127 % of control

Question: `CC1(C)OCC(CO)(Nc2nc(N3CC3)nc(N3CC3)n2)CO1` was tested. Which survivor count (T/C endpoint: median survival time, dose: 6.25 mg/kg/injection, schedule: Q02DX011 (ip), vehicle: saline, higher T/C = longer survival) did it give?
Answer: 0 of 10 on day 16

Question: And the survivor count (T/C endpoint: median survival time, dose: 12.5 mg/kg/injection, schedule: Q02DX011 (ip), vehicle: saline, higher T/C = longer survival)?
Answer: 0 of 10 on day 16

Question: And the survivor count (T/C endpoint: median survival time, dose: 25.0 mg/kg/injection, schedule: Q02DX011 (ip), vehicle: saline, higher T/C = longer survival)?
Answer: 0 of 10 on day 16

Question: How did the survivor count (T/C endpoint: median survival time, dose: 12.5 mg/kg/injection, schedule: Q01DX009 (ip), vehicle: saline with Tween-80, higher T/C = longer survival) turn out when `O=C1C2CC(Cl)C(SSC3CC4C(=O)N(SC(Cl)(Cl)C(Cl)Cl)C(=O)C4CC3Cl)CC2C(=O)N1SC(Cl)(Cl)C(Cl)Cl` (stereo unspecified) was run?
Answer: 9 of 10 on day 9

Question: What about the survivor count (T/C endpoint: median survival time, dose: 25.0 mg/kg/injection, schedule: Q01DX009 (ip), vehicle: saline with Tween-80, higher T/C = longer survival) of the same compound?
Answer: 8 of 10 on day 9

Question: And the survivor count (T/C endpoint: median survival time, dose: 50.0 mg/kg/injection, schedule: Q01DX009 (ip), vehicle: saline with Tween-80, higher T/C = longer survival)?
Answer: 0 of 10 on day 9

Question: With `Nc1ccn(C2OC3COC2C3O)c(=O)n1` (stereo unspecified) as the compound, how does the T/C (T/C endpoint: median tumor weight (est.), dose: 50.0 mg/kg/injection, schedule: Q01DX009 (ip), vehicle: saline, evaluated on day 20, higher T/C = larger tumour) read?
Answer: 146 % of control
